Drawing on article PMC10250352, this text covers binding for one molecule.

Results are given in words; binding and its absence hold for the method and conditions named. Binding seen in cells or lysates may run through a third protein. A yes stands for co-enrichment or nearness to the bait. Other partners may have been found. A no says only that the protein was not detected with the bait.

For this assay, the target named is BRD-8^V5 (BRD-8 C-terminally tagged with V5) (Neurospora crassa) (UniProt Q7SC01). The experiment in a line: affinity purification with mass spectrometry; BRD-8^V5 isolated from 5 g of Neurospora tissue grown in the light by a single step on V5 antibody-conjugated Dynabeads; single bands or the whole gel lane analysed by MS/MS; untagged strain 328-4 as negative control.

B1: BDP-3 (the Neurospora ortholog of human BRD4) (protein, UniProt V5IPQ4 1-1102)
chain: MAVMTSQQADGGAALPEKPVTMATEAPTAAPDAPVADAPKSDAPAADAATADATGDAAPTPDAPVKDVADGDHQKETEVNGHDDAVSPKTLVPETKTDSLPTPKDEPSLEEAQTTPAKKEEDAPKAEESKEGERKSDEQAQKEDAKPAPVEEEKKAEEPAKEEEGPKDEGDKMEIDAPEVPAGDAQKEPVASPGEDKVPEPAAEEKPKEEEKPAAAEEAKEDKPAEPKADVATEAKSEAKSDDGPAAKEKEEAAAPAATETPATEPASKPPASPAKQQEDVEMADAPATVEEPAKSEQAKPAEATPTATQQETQDTAVSDVPPPTPAEDEKKDKESPQPSPAAPVAPVTADTSMSDAPPPSSKPYREREEDSEDEPVAKRAKVSPVADQASAKNEAKREDKMDVDSKPAASSASTSVHDRSEPKSLADDSINHLPISDYMNRQIRQVLAGVKKTKAGYHFRLPVSELWPGLWNEYSAKVKDPTDIQTMEKRLRGNLAKYHTLGDFKRDLEKLVQNSIAFNGEYHDVTAAARSCRDTILARLGGCPAFEPSRPEKKDFAKQHPTRHAEPRAASHLSSPSAPLPQRPQQPRVNTAAVPAPSSSKSIESPAFAIPANNNGMPLIRRDSTKPDSRAKRPVKPTHSKDLVYDTKRKKKLIPELRFCEEVLTELRKQRYYEFNEAFQKPVDPVALNIPTYHKIIKKPMDLSTMQSKLNAGDYASAKEFERDFDLIIKNCRLFNGEQHIVYEQALRLQSLYRREMSKKDEWLAKHAPAPAPHLSSNTSPRLKDESDWEEPESEGEPEVDEELKGAQQRLASYMKRLEEEQKKINDIMLEMNPNMADVEIAQSVVAMLQKQIITERSKIASMQPTKKAAPAKSHHANKPSVSKPKKAMPAGGSSHHAGGHVAKKASVSHSSMGGHGGGMGGMPKKAAARKPAPKRKMGTVEKEVIAAGIAELEGAQLERAIEIIKSDTGTGENDSGELELDIDQLSQEALTQLYDLAIKAFPHLQREKERTMAAQAPAPPPAAQRSKPVQKTKKNKPMSKMEQERRLQQLNELRAQAGRQGSGSQEPLESIEGTGRTSAEPAPQHHREEDSEDEESSEEE
As to B1, the binding entry is on record as “no binding”.
